Results deposited as PubChem BioAssay AID743121 (NCATS, 2013)
Shown is an unselected part of about 26,000 reagents. In the full data, 167 (0.63%) were called active. 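Calls are per gene from RSA p-values that are not deposited; an individual active-marked siRNA can sensitise only weakly.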 The numbers tell different reagents against one gene apart. Further read-outs or replicates are left out here.

- Assay: 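Knock-downs that sensitise breast cancer cells to camptothecin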 (primary screen)
- Cell system: MDA-MB-231 cells, a human breast cancer line
- Reagents: single siRNA against human genes, 20 nM siRNA (0.8 pmol per well)
- Time to read-out: 120 h (drug added 48 h after transfection, read 72 h later)
- Conditions: camptothecin 20 nM (about EC30) for 72 h; vehicle 0.1% DMSO in parallel plates
- Measured: 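Cell viability by ATP luminescence (CellTiter-Glo) as % of non-targeting siRNA wells, and the log2 ratio of viability without drug over viability with camptothecin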
- Direction: log2 vehicle/camptothecin viability: higher = stronger sensitisation to camptothecin
- Hit rule: 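Each gene scored by redundant siRNA activity (RSA) over its individual siRNA ratios; a gene is called active at p < 0.001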

CERK (ceramide kinase) #1: log2 vehicle/camptothecin viability = 0.376; call = inactive
CERK (ceramide kinase) #2: log2 vehicle/camptothecin viability = -0.196; call = inactive
CERK (ceramide kinase) #3: log2 vehicle/camptothecin viability = -0.57; call = inactive
CERK (ceramide kinase) #4: log2 vehicle/camptothecin viability = -0.3; call = inactive
MRAS (muscle RAS oncogene homolog) #1: log2 vehicle/camptothecin viability = -0.0265; call = inactive
MRAS (muscle RAS oncogene homolog) #2: log2 vehicle/camptothecin viability = -0.106; call = inactive
MRAS (muscle RAS oncogene homolog) #3: log2 vehicle/camptothecin viability = 0.0576; call = inactive
MRAS (muscle RAS oncogene homolog) #4: log2 vehicle/camptothecin viability = -0.774; call = inactive
P2RY14 (purinergic receptor P2Y14) #1: log2 vehicle/camptothecin viability = -0.153; call = inactive
P2RY14 (purinergic receptor P2Y14) #2: log2 vehicle/camptothecin viability = 0.384; call = inactive
P2RY14 (purinergic receptor P2Y14) #3: log2 vehicle/camptothecin viability = 0.596; call = inactive
P2RY14 (purinergic receptor P2Y14) #4: log2 vehicle/camptothecin viability = -0.186; call = inactive

Continued; the last 4 above are carried over.
P2RY14 (purinergic receptor P2Y14) #1: log2 vehicle/camptothecin viability = -0.153; call = inactive
P2RY14 (purinergic receptor P2Y14) #2: log2 vehicle/camptothecin viability = 0.384; call = inactive
P2RY14 (purinergic receptor P2Y14) #3: log2 vehicle/camptothecin viability = 0.596; call = inactive
P2RY14 (purinergic receptor P2Y14) #4: log2 vehicle/camptothecin viability = -0.186; call = inactive
DYRK1A #1: log2 vehicle/camptothecin viability = -0.358; call = inactive
DYRK1A #2: log2 vehicle/camptothecin viability = -0.126; call = inactive
DYRK1A #3: log2 vehicle/camptothecin viability = -0.0186; call = inactive
DYRK1A #4: log2 vehicle/camptothecin viability = -0.348; call = inactive
PTPN5 (protein tyrosine phosphatase non-receptor type 5) #1: log2 vehicle/camptothecin viability = -0.468; call = inactive
PTPN5 (protein tyrosine phosphatase non-receptor type 5) #2: log2 vehicle/camptothecin viability = -0.375; call = inactive
PTPN5 (protein tyrosine phosphatase non-receptor type 5) #3: log2 vehicle/camptothecin viability = -0.471; call = inactive
PTPN5 (protein tyrosine phosphatase non-receptor type 5) #4: log2 vehicle/camptothecin viability = -0.404; call = inactive
PIP4K2A (phosphatidylinositol-5-phosphate 4-kinase type 2 alpha) #1: log2 vehicle/camptothecin viability = 0.981; call = inactive
PIP4K2A (phosphatidylinositol-5-phosphate 4-kinase type 2 alpha) #2: log2 vehicle/camptothecin viability = -0.357; call = inactive
PIP4K2A (phosphatidylinositol-5-phosphate 4-kinase type 2 alpha) #3: log2 vehicle/camptothecin viability = -0.4; call = inactive
PIP4K2A (phosphatidylinositol-5-phosphate 4-kinase type 2 alpha) #4: log2 vehicle/camptothecin viability = -0.264; call = inactive
EP300 (EP300 lysine acetyltransferase) #1: log2 vehicle/camptothecin viability = 0.136; call = inactive
EP300 (EP300 lysine acetyltransferase) #2: log2 vehicle/camptothecin viability = -0.0499; call = inactive
EP300 (EP300 lysine acetyltransferase) #3: log2 vehicle/camptothecin viability = -0.335; call = inactive
EP300 (EP300 lysine acetyltransferase) #4: log2 vehicle/camptothecin viability = -0.335; call = inactive
FASTK (Fas activated serine/threonine kinase) #1: log2 vehicle/camptothecin viability = -0.834; call = inactive
FASTK (Fas activated serine/threonine kinase) #2: log2 vehicle/camptothecin viability = -0.403; call = inactive
FASTK (Fas activated serine/threonine kinase) #3: log2 vehicle/camptothecin viability = -0.365; call = inactive
FASTK (Fas activated serine/threonine kinase) #4: log2 vehicle/camptothecin viability = -0.221; call = inactive
ZNHIT3 (zinc finger HIT-type containing 3) #1: log2 vehicle/camptothecin viability = -0.0152; call = inactive
ZNHIT3 (zinc finger HIT-type containing 3) #2: log2 vehicle/camptothecin viability = 0.508; call = inactive
ZNHIT3 (zinc finger HIT-type containing 3) #3: log2 vehicle/camptothecin viability = -0.75; call = inactive
